Data published in patent publication US6512161.
No constants are given. Whether binding was seen depends on the method and setting. Some entries that bind do so weakly or less than the wild type.

Sequences of proteins named here, by UniProt entry; tags and fusion partners are left off. Residues count along the entry.
UniProt P04114, residues 28-4563: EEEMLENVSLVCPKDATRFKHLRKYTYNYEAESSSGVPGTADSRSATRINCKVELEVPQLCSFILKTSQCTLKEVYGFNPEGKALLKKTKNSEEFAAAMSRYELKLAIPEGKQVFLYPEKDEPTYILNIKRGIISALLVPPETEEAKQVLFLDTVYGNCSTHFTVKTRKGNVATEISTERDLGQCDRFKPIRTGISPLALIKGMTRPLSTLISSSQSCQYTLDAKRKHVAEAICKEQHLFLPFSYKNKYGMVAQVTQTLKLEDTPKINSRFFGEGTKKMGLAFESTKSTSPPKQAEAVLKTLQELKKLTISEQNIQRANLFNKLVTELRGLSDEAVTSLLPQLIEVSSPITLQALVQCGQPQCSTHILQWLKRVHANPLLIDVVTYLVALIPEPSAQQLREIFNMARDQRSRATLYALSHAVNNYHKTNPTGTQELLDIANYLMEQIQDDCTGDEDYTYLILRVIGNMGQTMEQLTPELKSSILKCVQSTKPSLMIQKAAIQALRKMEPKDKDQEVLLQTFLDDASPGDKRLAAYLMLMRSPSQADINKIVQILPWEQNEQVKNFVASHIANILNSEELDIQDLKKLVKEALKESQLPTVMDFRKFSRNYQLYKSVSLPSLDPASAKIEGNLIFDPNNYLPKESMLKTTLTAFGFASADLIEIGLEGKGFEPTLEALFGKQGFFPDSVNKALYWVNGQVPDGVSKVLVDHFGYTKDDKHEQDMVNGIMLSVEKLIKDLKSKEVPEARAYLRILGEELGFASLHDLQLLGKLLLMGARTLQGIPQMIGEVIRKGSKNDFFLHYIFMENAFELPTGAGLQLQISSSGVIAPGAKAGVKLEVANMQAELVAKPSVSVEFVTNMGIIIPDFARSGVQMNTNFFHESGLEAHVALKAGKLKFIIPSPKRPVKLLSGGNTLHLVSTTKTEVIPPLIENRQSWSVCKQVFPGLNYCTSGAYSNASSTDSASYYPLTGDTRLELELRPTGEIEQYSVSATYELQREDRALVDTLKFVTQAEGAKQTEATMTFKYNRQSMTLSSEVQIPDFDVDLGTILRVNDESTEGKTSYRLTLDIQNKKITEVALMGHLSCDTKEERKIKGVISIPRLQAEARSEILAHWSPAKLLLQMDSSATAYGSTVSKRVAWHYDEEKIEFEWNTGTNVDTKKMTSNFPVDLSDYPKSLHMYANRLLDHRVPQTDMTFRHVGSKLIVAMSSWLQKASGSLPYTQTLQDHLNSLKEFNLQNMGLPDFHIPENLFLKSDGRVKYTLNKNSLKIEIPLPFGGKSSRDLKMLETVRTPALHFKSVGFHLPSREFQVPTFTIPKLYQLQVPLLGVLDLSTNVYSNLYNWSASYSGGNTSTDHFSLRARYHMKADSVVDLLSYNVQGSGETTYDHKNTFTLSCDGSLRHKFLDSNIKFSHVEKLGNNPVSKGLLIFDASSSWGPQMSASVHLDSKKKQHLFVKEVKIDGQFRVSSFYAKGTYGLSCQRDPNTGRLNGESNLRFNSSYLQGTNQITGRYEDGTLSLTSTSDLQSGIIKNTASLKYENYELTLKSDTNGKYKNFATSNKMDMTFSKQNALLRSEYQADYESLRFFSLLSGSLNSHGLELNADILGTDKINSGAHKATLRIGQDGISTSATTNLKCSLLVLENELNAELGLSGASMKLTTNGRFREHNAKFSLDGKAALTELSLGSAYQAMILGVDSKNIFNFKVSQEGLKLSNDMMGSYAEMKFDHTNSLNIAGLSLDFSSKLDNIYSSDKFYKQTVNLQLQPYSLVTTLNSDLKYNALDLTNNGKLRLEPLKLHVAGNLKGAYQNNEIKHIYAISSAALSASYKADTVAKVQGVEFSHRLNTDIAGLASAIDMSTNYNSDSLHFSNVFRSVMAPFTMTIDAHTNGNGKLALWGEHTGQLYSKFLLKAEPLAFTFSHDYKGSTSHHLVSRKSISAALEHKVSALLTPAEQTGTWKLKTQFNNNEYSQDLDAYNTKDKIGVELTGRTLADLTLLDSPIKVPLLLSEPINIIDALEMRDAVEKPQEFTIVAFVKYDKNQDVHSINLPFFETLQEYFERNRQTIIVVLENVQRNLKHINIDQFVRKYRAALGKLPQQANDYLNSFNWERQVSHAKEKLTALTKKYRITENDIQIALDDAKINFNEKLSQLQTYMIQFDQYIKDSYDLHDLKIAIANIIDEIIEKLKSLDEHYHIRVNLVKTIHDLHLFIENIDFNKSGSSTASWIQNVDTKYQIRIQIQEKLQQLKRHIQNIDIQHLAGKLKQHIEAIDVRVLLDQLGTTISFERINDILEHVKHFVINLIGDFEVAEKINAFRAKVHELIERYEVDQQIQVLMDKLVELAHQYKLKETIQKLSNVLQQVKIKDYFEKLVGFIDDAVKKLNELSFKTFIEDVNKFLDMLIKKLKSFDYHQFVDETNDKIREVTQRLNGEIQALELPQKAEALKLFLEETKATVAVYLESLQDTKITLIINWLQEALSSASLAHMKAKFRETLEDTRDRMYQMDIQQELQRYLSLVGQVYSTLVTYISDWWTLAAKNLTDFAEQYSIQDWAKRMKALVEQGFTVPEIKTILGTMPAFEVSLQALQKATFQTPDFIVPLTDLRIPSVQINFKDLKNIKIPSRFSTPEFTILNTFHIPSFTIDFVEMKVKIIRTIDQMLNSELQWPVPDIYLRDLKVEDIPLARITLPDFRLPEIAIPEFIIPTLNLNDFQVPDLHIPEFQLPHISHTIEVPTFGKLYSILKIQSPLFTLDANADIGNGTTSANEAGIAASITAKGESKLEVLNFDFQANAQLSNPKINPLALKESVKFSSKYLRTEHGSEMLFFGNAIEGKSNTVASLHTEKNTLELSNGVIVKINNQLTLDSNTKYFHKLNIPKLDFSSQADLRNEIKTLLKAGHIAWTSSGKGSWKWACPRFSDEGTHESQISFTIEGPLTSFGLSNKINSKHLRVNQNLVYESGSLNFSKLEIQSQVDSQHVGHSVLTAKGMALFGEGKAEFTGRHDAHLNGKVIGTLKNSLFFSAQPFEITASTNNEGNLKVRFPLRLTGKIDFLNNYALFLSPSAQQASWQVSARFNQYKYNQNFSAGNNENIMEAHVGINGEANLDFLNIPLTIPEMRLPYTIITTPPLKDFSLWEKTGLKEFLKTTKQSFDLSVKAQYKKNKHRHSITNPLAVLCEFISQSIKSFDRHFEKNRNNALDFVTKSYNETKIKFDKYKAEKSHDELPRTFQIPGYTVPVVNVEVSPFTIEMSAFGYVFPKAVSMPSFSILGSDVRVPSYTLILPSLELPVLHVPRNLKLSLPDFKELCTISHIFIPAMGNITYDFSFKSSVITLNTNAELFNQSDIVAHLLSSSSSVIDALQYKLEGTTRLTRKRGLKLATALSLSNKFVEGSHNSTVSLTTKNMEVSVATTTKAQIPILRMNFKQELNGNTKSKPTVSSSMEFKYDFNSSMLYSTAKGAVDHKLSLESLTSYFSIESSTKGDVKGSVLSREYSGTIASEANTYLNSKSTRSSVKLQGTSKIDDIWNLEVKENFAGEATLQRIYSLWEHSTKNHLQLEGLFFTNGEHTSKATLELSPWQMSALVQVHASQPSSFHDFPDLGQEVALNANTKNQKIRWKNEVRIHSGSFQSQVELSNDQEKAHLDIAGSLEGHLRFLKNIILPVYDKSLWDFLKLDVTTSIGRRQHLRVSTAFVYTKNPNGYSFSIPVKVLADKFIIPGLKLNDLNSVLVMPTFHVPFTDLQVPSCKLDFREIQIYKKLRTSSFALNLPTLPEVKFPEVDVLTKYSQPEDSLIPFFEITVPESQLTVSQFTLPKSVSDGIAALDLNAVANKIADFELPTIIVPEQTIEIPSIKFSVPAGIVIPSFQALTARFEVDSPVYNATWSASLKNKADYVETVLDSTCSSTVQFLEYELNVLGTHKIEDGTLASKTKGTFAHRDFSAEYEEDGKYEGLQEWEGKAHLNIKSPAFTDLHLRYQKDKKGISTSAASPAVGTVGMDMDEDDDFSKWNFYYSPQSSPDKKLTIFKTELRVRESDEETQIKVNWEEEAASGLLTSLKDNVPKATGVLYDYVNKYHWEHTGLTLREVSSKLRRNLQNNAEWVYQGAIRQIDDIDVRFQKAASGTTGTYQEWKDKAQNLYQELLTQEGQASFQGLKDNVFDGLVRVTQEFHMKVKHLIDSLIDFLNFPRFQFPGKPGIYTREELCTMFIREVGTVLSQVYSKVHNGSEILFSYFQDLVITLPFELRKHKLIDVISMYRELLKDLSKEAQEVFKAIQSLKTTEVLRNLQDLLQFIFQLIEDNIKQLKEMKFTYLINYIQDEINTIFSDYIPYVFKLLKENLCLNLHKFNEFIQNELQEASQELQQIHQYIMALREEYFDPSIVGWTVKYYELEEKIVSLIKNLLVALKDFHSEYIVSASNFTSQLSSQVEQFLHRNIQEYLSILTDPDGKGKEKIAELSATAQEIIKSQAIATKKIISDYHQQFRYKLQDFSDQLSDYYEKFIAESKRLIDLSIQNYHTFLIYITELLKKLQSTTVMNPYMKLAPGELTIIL
UniProt P08519, residues 20-2040: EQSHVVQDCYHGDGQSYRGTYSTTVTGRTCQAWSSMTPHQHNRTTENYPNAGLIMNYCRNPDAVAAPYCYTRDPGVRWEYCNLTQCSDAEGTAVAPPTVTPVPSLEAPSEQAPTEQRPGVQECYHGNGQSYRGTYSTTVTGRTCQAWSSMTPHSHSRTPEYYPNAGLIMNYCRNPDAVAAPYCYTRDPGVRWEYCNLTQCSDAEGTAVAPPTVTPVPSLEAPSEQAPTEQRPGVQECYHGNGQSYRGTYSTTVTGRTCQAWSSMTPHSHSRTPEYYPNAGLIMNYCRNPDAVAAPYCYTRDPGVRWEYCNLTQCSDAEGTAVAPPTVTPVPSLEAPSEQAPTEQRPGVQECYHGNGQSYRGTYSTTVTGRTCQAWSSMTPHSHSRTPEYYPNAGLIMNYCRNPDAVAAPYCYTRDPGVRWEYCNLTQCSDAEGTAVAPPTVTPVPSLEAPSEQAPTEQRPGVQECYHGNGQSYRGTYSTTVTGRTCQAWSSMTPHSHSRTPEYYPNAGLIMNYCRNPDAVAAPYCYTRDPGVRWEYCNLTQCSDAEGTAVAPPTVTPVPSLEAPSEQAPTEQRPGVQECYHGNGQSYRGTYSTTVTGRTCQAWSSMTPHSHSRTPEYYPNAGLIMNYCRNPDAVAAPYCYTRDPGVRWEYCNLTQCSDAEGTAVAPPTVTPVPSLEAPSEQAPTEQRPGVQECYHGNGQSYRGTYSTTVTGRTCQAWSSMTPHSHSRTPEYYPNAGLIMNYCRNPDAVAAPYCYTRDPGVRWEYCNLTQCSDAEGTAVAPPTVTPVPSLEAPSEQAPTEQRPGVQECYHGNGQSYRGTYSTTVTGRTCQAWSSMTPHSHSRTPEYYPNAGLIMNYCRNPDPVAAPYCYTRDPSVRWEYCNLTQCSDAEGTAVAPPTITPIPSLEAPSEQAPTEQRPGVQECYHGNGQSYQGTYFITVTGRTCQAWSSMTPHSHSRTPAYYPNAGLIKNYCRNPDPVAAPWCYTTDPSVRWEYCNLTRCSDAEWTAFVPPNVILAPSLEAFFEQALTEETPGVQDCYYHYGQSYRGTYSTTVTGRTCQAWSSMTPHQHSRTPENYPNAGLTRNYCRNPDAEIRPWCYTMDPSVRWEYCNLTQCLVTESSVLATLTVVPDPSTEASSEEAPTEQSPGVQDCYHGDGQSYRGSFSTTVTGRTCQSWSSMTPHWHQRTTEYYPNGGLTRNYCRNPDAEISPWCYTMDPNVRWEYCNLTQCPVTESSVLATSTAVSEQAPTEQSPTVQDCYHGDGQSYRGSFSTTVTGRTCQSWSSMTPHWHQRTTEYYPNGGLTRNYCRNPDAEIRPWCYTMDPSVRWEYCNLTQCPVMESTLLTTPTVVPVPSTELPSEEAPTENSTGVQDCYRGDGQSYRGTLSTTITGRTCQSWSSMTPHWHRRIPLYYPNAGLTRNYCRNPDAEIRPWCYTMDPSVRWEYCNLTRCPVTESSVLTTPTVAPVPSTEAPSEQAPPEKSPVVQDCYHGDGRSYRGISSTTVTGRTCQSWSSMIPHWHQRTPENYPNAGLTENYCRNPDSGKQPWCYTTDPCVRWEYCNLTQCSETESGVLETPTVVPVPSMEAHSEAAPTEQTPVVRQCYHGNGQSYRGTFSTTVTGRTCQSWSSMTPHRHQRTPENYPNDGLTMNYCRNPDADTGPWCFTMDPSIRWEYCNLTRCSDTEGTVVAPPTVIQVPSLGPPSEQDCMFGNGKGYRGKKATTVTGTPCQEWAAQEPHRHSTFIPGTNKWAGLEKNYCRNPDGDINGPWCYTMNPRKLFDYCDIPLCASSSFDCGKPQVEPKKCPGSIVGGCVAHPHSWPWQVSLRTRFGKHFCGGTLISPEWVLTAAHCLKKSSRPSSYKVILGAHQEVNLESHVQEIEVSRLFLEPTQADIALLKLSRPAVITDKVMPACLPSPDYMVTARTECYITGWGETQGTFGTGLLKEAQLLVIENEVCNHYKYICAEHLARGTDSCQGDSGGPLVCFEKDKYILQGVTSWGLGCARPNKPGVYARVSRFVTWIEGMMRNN

Tests used:
[1] = target: human apolipoprotein B-100 (human) (UniProt P04114); test: ultracentrifugation of lipoproteins, apo(a) ELISA of the lipoprotein fraction
[2] = target: human apolipoprotein B-100 (human) (UniProt P04114); test: Superose 6 gel filtration of plasma, non-reducing anti-apo(a) immunoblot of LDL fractions
[3] = target: human apolipoprotein B-100 (human) (UniProt P04114); test: immunoblot and ultracentrifugation of apoB/apo(a) transgenic rabbit plasma
[4] = target: human apolipoprotein B-100 (human) (UniProt P04114); test: non-reducing SDS-PAGE and anti-apo(a) immunoblot of transgenic rabbit plasma

binding [1]: binds | binding [2]: binds | binding [3]: binds | binding [4]: binds
Substance: human apolipoprotein(a) (from UniProt P08519 20-2040)
